We go through 58 molecules from PubChem BioAssay AID2685 (National Center for Advancing Translational Sciences (NCATS), 2010).

This is one part of the list. These are further read-outs of the screen, such as a control signal, another cell line or another target. No call is given for them. The list favours compounds with an active or inconclusive main result. The note in brackets gives the kind of curve behind each potency; many fits are weak.

The assay in a line: qHTS Assay for Lipid Storage Modulators in Drosophila S3 Cells.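 As to cell number change: cells counted by Cell Tracker Red CMTPX staining in the red channel.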 Particulars: BODIPY lipid droplet fluorescence, 18-24 h; for cell number change: measured here: cell count max response, cells fed with added oleic acid. The gist of the method: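 Drosophila S3 cells got compounds at several concentrations plus oleic acid (400 uM solution). Laser-scanning cytometry with 488 nm excitation read lipid droplets at 500-530 nm and cells at 575-640 nm. Percent activity was relative to 20 uM Triacsin C.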
Background: In qHTS, concentration-response curves come from the screen itself.

Setting [1] is: measured here: cell number channel AC50, cells fed with added oleic acid.
Where [2] appears, read: measured here: lipid fluorescence (Fed channel) AC50, cells fed with added oleic acid.

What is called AC50 is the concentration giving half of the maximal activity seen. With `Cc1ccc(NS(C)(=O)=O)c(C(=O)c2ccccc2)c1`, the cell number change came out at 68.8%. For the same molecule, under setting [1], the AC50 was 3.66 µM [rising, partial curve]. Further, under setting [2], the AC50 was 9.2 µM [rising, partial curve].
As for `O=C(Cc1ccc([N+](=O)[O-])cc1)NCc1ccc2c(c1)OCO2`, the cell number change is 3.74%. Besides, the AC50 under setting [1] is 0.103 µM [rising, full curve]. The AC50 under setting [2] was 29.1 µM [rising, single point].
As for `CCCC(=O)Nc1ccc(C)c(O)c1`, the cell number change is -0.133%. Moreover, the AC50 under setting [2] is 3.26 µM [falling, single point].
In the case of `COc1ccc(Nc2nc(N(C)c3ccccc3)nc(N)c2[N+](=O)[O-])cc1`, the cell number change was -10.4%.
For the molecule `Cc1ccccc1NC(=O)NC1(C(=O)N2CCC(O)CC2)CCCCC1`, the cell number change stood at 33.3%. Moreover, the AC50 under setting [1] is 10.3 µM [rising, partial curve].
Turning to `COc1ccc(OC)c(/C=C2\SC(=S)N(Cc3cccnc3)C2=O)c1`, the cell number change turned out to be 15.4%.
With `Cc1ccc(Nc2c3c(nc4ncnn24)CCC3)cc1`, the AC50 by setting is: under setting [1], 6.51 µM [rising, single point]; under setting [2], 6.51 µM [rising, single point].
As for `Cn1c(N)c(C(=O)COC(=O)c2ccc(Cl)c(S(=O)(=O)N3CCCCC3)c2)c(=O)n(C)c1=O`, the cell number change was -13.2%. For the same molecule, under setting [2], the AC50 is 0.58 µM [falling, single point].
`CCOc1ccc(CCNC(=O)COC(=O)c2nc3nc(C)cc(C)n3n2)cc1OCC`: the cell number change was -5.46%. In addition, the AC50 under setting [1] was 6.51 µM [rising, single point]. Moreover, the AC50 under setting [2] was 0.326 µM [falling, single point].
Regarding `O=C(Cn1ncnn1)OCc1ccccc1Cl`, the cell number change was -37.4%. In addition, the AC50 under setting [1] is 8.2 µM [falling, partial curve, poor fit]. Further, the AC50 under setting [2] was 11.6 µM [falling, single point].
In the case of `O=C(CC1Sc2ccccc2NC1=O)NNC(=O)Nc1ccc(Cl)cc1` (stereo not drawn), under setting [2], the AC50 was 0.651 µM [rising, partial curve, poor fit].
For the molecule `Cc1cc(N=Cc2c(O)ccc3ccccc23)no1`, the cell number change was -1.02%. For the same molecule, under setting [2], the AC50 is 6.51 µM [rising, partial curve].
Take `CCOc1ccc(NC(=O)c2ccc3c(SCC(=O)O)c4c(nc3c2)CCCC4)cc1`: the cell number change was found to be 54.9%. Besides, the AC50 under setting [1] is 29.1 µM [rising, single point]. Under setting [2], the AC50 is 0.731 µM [rising, full curve, poor fit].
As for `O=S(=O)(Cc1cc(Sc2ccccc2)nc(-c2ccccc2)n1)c1ccccc1`, the AC50 under setting [2] was 2.06 µM [rising, partial curve].
As for `CSc1ccc(/C=N/n2c(C)nc3ccccc3c2=O)cc1`, the cell number change is -11.1%.
Take `COCCNC(=O)C(c1cccs1)N(C(=O)Cn1nnc2ccccc21)c1cccc(C)c1` (stereo not drawn): the cell number change is -20.2%. For the same molecule, under setting [2], the AC50 was 0.731 µM [rising, single point].
Take `Cc1ccc2c(c1)N(C(=O)CCC(=O)NCc1cccc(Br)c1)CC(C)O2` (stereo not drawn): the cell number change was -18.7%. In addition, the AC50 under setting [2] was 29.1 µM [falling, single point].
`O=C(O)c1ccc(CN2C(=O)CSC2=S)cc1`: the cell number change is -5.82%. In addition, under setting [2], the AC50 was 3.26 µM [falling, partial curve, poor fit].
In the case of `Cn1c(SCC(=O)N2c3ccccc3CCc3ccccc32)nnc1-c1cc2ccccc2cc1O`, the cell number change was -11.2%. Moreover, the AC50 under setting [2] was 29.1 µM [falling, single point].
Take `CCCCN(C(=O)C(C)N1C(=O)c2ccccc2C1=O)c1c(N)n(CCCC)c(=O)[nH]c1=O` (stereo not drawn): the cell number change was 24.9%. For the same molecule, under setting [2], the AC50 is 25.9 µM [rising, single point].
Turning to `COc1ccccc1NS(=O)(=O)c1ccc(C)c(C(=O)NCc2cccnc2)c1`, the cell number change is -0.777%. Moreover, under setting [2], the AC50 was 7.31 µM [rising, partial curve, poor fit].
For the molecule `O=S1(=O)CCOC[C@H](CC2CCCCC2)N1Cc1cccc(F)c1`, the cell number change was -2.99%.
Take `Clc1ccc(N2CCOCC2)nn1`: the cell number change is -4.05%. The concentration at half-maximal activity (AC50) under setting [2] was 0.517 µM [falling, single point].
As to `Cc1cc(-c2ccc(C(=O)O)s2)cnc1N`, the cell number change came out at 35.7%. The concentration at half-maximal activity (AC50) under setting [1] is 0.206 µM [rising, full curve]. Moreover, the AC50 under setting [2] was 0.00517 µM [rising, full curve].
With `COc1ccc(-n2c3c(cc(C(=O)N4CCCCC4)c2=O)C(=O)CC(C)(C)C3)cc1`, the cell number change is -85.9%. Moreover, the AC50 under setting [1] is 3.26 µM [falling, full curve]. Moreover, the AC50 under setting [2] was 5.8 µM [falling, full curve].
For `CC(C)Oc1c(Br)cc(Br)cc1/C=N/NC(N)=S`, the cell number change is -21.9%. Also, the AC50 under setting [2] is 20.6 µM [falling, single point].
For the molecule `CN(C)S(=O)(=O)N(CC(=O)N(Cc1ccccc1)Cc1ccccc1)c1ccccc1`, the cell number change came out at 42.9%. The concentration at half-maximal activity (AC50) under setting [1] is 29.1 µM [rising, single point]. Under setting [2], the AC50 was 1.3 µM [falling, full curve, poor fit].
In the case of `COc1cccc(OC)c1C(=O)NC(=O)Nc1c(F)cc(F)cc1F`, the cell number change worked out at 4.26%. Besides, the AC50 under setting [2] was 0.082 µM [falling, full curve, poor fit].
For the molecule `Cn1cc(S(=O)(=O)N2CCOCC2)cc1C(=O)NCCc1ccccc1`, the cell number change is -15%.
Regarding `O=C(c1cncc(Br)c1)N1CCN(c2ccc([N+](=O)[O-])cc2)CC1`, the cell number change was -34.9%. Under setting [1], the AC50 was 0.731 µM [rising, full curve]. For the same molecule, the AC50 under setting [2] is 7.31 µM [rising, partial curve].
Regarding `Cc1cccnc1NCC(O)COc1ccccc1` (stereo not drawn), the cell number change was -105%. The AC50 under setting [1] was 29.1 µM [falling, single point]. Also, the AC50 under setting [2] was 23.1 µM [falling, partial curve].
`CC1(C)NC(C)(C)c2nonc2/C1=N\O`: the cell number change was 1.41%. In addition, the concentration at half-maximal activity (AC50) under setting [2] was 0.058 µM [falling, full curve, poor fit].
Consider `CCOc1ccc(N(C(=O)c2snc(C(N)=O)c2N)C(CC)C(=O)NC2CCCC2)cc1` (stereo not drawn), for which the cell number change worked out at 27%.
On to `COc1ccc2oc(C(=O)Nc3nccs3)c(C)c2c1`, for which the cell number change is -20.2%.
Consider `COc1ccc2cnnc(SCC(=O)Nc3ccccc3)c2c1OC`, for which the cell number change is 13.1%.
Turning to `COc1ccc(S(=O)(=O)n2cnc3cc(C)c(C)cc32)cc1`, the cell number change is -11.8%. In addition, the AC50 under setting [2] was 0.366 µM [rising, full curve].
In the case of `COc1ccc(NC(=O)C2C3CCC4C(CCC32)C4(Cl)Cl)cc1` (stereo not drawn), the cell number change was -11.4%. Also, under setting [2], the AC50 was 0.103 µM [falling, full curve, poor fit].
For `COC(=O)C(O)(NC(=O)OCc1ccccc1)C(F)(F)F` (stereo not drawn), the cell number change is -206%. Moreover, the AC50 under setting [2] is 23.1 µM [falling, single point].
For the molecule `COc1ccc(C2CC(c3cccs3)=NN2C(=O)c2ccc(Br)o2)cc1` (stereo not drawn), the cell number change is -49.3%. The AC50 under setting [1] is 29.1 µM [falling, single point]. Besides, the AC50 under setting [2] is 29.1 µM [falling, single point].
For the molecule `CCOc1ccccc1-c1nc(C(N)=O)c2[nH]c(=O)n(-c3cccc(C)c3)c2n1`, the cell number change was determined as 13.1%. Besides, the AC50 under setting [1] was 0.00461 µM [falling, full curve, poor fit].
Consider `Cc1ccc(/C=C/C2=NN(Cc3ccccc3)C(=O)CC2)cc1`, for which the cell number change amounted to 36.3%. Further, the AC50 under setting [1] is 0.0651 µM [rising, full curve]. Further, the AC50 under setting [2] is 4.61 µM [rising, single point].
`CN1CCN(NC(=O)c2ccc(Cl)cc2Cl)CC1`: the cell number change is -16.7%. Further, the AC50 under setting [1] is 3.66 µM [rising, partial curve]. Further, the AC50 under setting [2] is 9.2 µM [falling, partial curve].
With `Cc1nn(C)c(C)c1CN(C)C(=O)c1cnn2c1NC(c1ccccc1)CC2C(F)(F)F` (stereo not drawn), the cell number change amounted to 0.146%.
In the case of `O=C(NNc1ncccc1Cl)c1c(Cl)cccc1Cl`, the cell number change is -29.8%. For the same molecule, under setting [2], the AC50 is 16.4 µM [falling, single point].
With `CCOC(=O)c1ccccc1NC(=O)CSc1nnc(COc2ccccc2C)n1C`, the AC50 by setting is: under setting [1], 3.66 µM [rising, single point]; under setting [2], 4.61 µM [rising, partial curve].
`Cc1cccc(-n2c(CNC(=O)Cc3ccccc3)n[nH]c2=S)c1`: the cell number change came to 6.04%. The AC50 under setting [1] is 0.651 µM [falling, single point].
In the case of `O=C(N/N=C/c1ccncc1)c1cc2ccccc2o1`, the cell number change is -13.7%. For the same molecule, the AC50 under setting [2] is 0.00461 µM [rising, full curve, poor fit].
Turning to `CC(C(=O)Nc1ccccc1C(=O)N1CCOCC1)N(c1ccc(Cl)cc1)S(C)(=O)=O` (stereo not drawn), the AC50 under setting [2] was 2.91 µM [falling, single point].
For `Cc1ccc(/C=C(\NC(=O)c2ccccc2)C(=O)NC(Cc2ccccc2)C(=O)O)cc1` (stereo not drawn), the cell number change was -32.8%. Besides, the AC50 under setting [1] is 3.66 µM [falling, full curve, poor fit]. The AC50 under setting [2] is 4.11 µM [falling, full curve, poor fit].
On to `Cc1ccc(NC(=O)[C@@H]2CCCN2S(=O)(=O)c2ccccc2C(F)(F)F)cc1S(=O)(=O)N1CCOCC1`, for which the cell number change was -2.52%. Besides, the AC50 under setting [1] is 0.082 µM [falling, partial curve, poor fit].
Regarding `N#C/C(N=Nc1ccccc1O)=N\Nc1ccccc1O`, the cell number change was -86.7%. Under setting [1], the AC50 was 29.1 µM [falling, single point].
`COc1ccc(Cl)cc1C(=O)NCc1ccc2c(c1)OCO2`: the cell number change turned out to be 2.49%.
With `COc1cccc(CNC(=O)c2cc3c(C)nc4ccccc4c3o2)c1`, the cell number change is -22%. Also, the AC50 under setting [2] is 29.1 µM [falling, single point].
Consider `C/C(=N\Nc1cc(C)nc(NCc2ccccc2)n1)c1cccc([N+](=O)[O-])c1`, for which the cell number change was determined as 59.2%. The AC50 under setting [2] is 29.1 µM [rising, partial curve, poor fit].
For `N#Cc1c(NC(=O)c2cnn3cccnc23)sc2c1CCCC2`, the cell number change is 39.3%. The AC50 under setting [1] was 32.6 µM [rising, single point]. Further, the AC50 under setting [2] was 2.06 µM [rising, partial curve].
With `COc1cc(C(=O)Nc2nc(-c3cccs3)cs2)cc(OC)c1OC`, the cell number change was -34.5%. Under setting [1], the AC50 is 10.3 µM [falling, partial curve].
For the molecule `CCOc1ccc(C(=O)Nc2ccc(S(=O)(=O)N3C[C@@H]4C[C@@H](C3)c3cccc(=O)n3C4)cc2)cc1`, the cell number change was -42.4%. In addition, the concentration at half-maximal activity (AC50) under setting [1] was 4.61 µM [falling, single point]. For the same molecule, under setting [2], the AC50 is 20.6 µM [falling, single point].
Take `O=C(Nc1nncs1)c1cccc(S(=O)(=O)N2CCc3ccccc32)c1`: the cell number change was found to be 3.7%.
